The assay is described as follows: qHTS Assay for Lipid Storage Modulators in Drosophila S3 Cells.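 As to cell number change: cells counted by Cell Tracker Red CMTPX staining in the red channel.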 The settings on record: BODIPY lipid droplet fluorescence, 18-24 h; for cell number change: measured here: cell count max response, cells fed with added oleic acid. Put shortly: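 Laser-scanning cytometry quantifies lipid droplet accumulation (500–530 nm total intensity; droplet/cell object ratio) in oleic acid-fed (400 uM added) Drosophila S3 cells treated with a concentration series. 20 uM Triacsin C defined 100% inhibition.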
In general terms: In qHTS, concentration-response curves come from the screen itself.

The mark [1] stands for this setting: measured here: cell number channel AC50, cells fed with added oleic acid.
Where [2] appears, read: measured here: lipid fluorescence (Fed channel) AC50, cells fed with added oleic acid.

SMILES strings stand for the structures. The list shows a part of the results. Shown are side measurements of this screen, not its main read-out; they come without a call. The list favours compounds with an active or inconclusive main result. The note in brackets gives the kind of curve behind each potency; many fits are weak.

As a reminder, the AC50 is the concentration giving half of the maximal activity seen. Lower therefore signals greater potency.

`COc1ccccc1NC(=O)c1cc2n(n1)C(C(F)(F)F)CC(c1ccc3c(c1)OCO3)N2` (stereo not given): the AC50 was 1840 nM [rising, partial curve] under setting [1] and 4.61 nM [rising, full curve, poor fit] under setting [2]. With `Cc1nn(C(C)c2nc(-c3ccccc3)no2)c(C)c1[N+](=O)[O-]` (stereo not given), the cell number change was -17.2%. With `Cc1nn(-c2ccc(F)cc2)c(Cl)c1/C=C1\C(=O)Nc2ccccc21`, the cell number change is -6.17%. Besides, under setting [2], the AC50 is 6510 nM [rising, single point]. As to `CCN1CCN(C(=O)Cn2nc(C)c3sc4ccccc4c3c2=O)CC1`, the cell number change was found to be 25%. On to `COc1ccccc1CNC(=O)CC1Sc2ccccc2NC1=O` (stereo not given), for which the cell number change was 14.6%. On to `C/C(CC(=O)Nc1ccc2c(c1)OCO2)=N\NC(=O)C(c1ccccc1)c1ccccc1`, for which the AC50 under setting [2] was 1840 nM [rising, partial curve]. For `COC(=O)c1c(N)sc(C(C)=O)c1C`, the cell number change was -2.63%. With `CCOc1ccc2nc(SCC(=O)N3CCCCCC3)c(C#N)cc2c1`, the cell number change was 5.62%. The AC50 under setting [2] is 5800 nM [rising, single point]. `CC(C)n1cnc2c(Nc3cccc(Cl)c3)nc(N(CCO)CCCO)nc21`: the cell number change was -7.4%. For the compound `O=C(NCCC1=CCCCC1)c1cnc2n(c1=O)CCS2`, the cell number change stood at 9.36%. In addition, under setting [1], the AC50 was 291 nM [rising, partial curve, poor fit]. Further, the AC50 under setting [2] was 461 nM [rising, full curve, poor fit]. For `COc1ccc(N2CCN(c3ncnc4c3cnn4-c3ccc(C)cc3C)CC2)cc1`, the cell number change was -9.04%. Moreover, the AC50 under setting [2] is 411 nM [rising, partial curve, poor fit]. For the compound `CC1CCCC(C)N1/N=C/C=C/c1ccccc1[N+](=O)[O-]` (stereo not given), the cell number change is -18.6%. On to `CC1CCCN(S(=O)(=O)c2ccc(NC(=O)[C@@H]3CCCN3C(=O)c3cccs3)cc2)C1` (stereo not given in full), for which the cell number change is 10.5%. In addition, under setting [2], the AC50 was 3260 nM [falling, single point]. On to `NC(=S)N/N=C/c1cccc(O)c1O`, for which the cell number change was -21.1%. Further, the AC50 under setting [2] is 29100 nM [falling, single point].

`COc1ccc(Br)cc1/C=C/C(=O)c1ccc(NC(C)=O)cc1`: the cell number change is -33.3%. Also, the AC50 under setting [1] is 9200 nM [falling, partial curve]. For `Cc1ccc(NC(=O)c2c([N+](=O)[O-])c(C(C)(C)C)nn2C)c(C)c1`, the cell number change was -15.3%. In addition, the AC50 under setting [2] was 1300 nM [falling, full curve].

Consider `CCc1cccc(OCCN2CCCC2)c1`, for which, under setting [1], the AC50 was 2310 nM [rising, single point]. Turning to `Cc1[nH]c2ccccc2c1C(=O)CN1CCN(c2ccc(Cl)cc2)CC1`, the AC50 under setting [2] is 651 nM [rising, full curve].

`COc1ccc2cc(CCN3C(=O)c4ccccc4C3=O)c(=O)[nH]c2c1`: the cell number change amounted to 13.4%. Further, under setting [2], the AC50 is 2060 nM [rising, full curve]. With `COc1cccc(-c2cc(C(=O)O)[nH]n2)c1`, the cell number change amounted to 2.61%. Besides, the AC50 under setting [2] was 259 nM [rising, full curve, poor fit]. For the compound `C=C(C)c1cccc(C(C)(C)NC(=O)N2CCC(C(N)=O)CC2)c1`, the cell number change was -37.2%. Further, the AC50 under setting [1] is 164 nM [falling, full curve]. As for `CCC1CCC(c2nnc(-c3ccc(Br)cc3)o2)CC1` (stereo not given), the cell number change is -31.4%. In addition, the AC50 under setting [1] was 25900 nM [falling, single point]. Consider `O=C(c1ccc(CS(=O)Cc2cccc(Cl)c2)o1)N1CCN(C2CCCCC2)CC1` (stereo not given), for which the AC50 under setting [2] was 6510 nM [falling, single point]. On to `Cc1ccc(N2C(=O)C3C(C2=O)C2C=CC3C23CC3)c([N+](=O)[O-])c1` (stereo not given), for which the cell number change was 5.02%. On to `O=C(COC(=O)CNC(=O)c1ccc(Br)cc1)NCCC1=CCCCC1`, for which the cell number change is -21.1%. The AC50 under setting [2] was 580 nM [rising, single point].

Take `CCOc1ccc(OCC)c(NC(=O)CSc2nnc(C3CC3)n2CC)c1`: the cell number change is 10.3%. Also, under setting [2], the AC50 was 5170 nM [falling, single point].

On to `Cc1c(NC2=CC(=O)CCC2)c(=O)n(-c2ccccc2)n1C`, for which the cell number change is -14.8%. Besides, under setting [2], the AC50 is 2910 nM [falling, full curve]. As to `COC(=O)C1=C(C)N(c2cccc(OC)c2)C(=O)/C1=C\c1ccco1`, the AC50 under setting [1] is 731 nM [rising, single point]. For `Cc1cc(Cl)c(S(N)(=O)=O)cc1OCC(N)=O`, the cell number change was -0.671%. Moreover, the AC50 under setting [1] is 1160 nM [falling, full curve]. With `CCC1(CC)NC(=O)N(CC(=O)OC(C)C(=O)Nc2ccc(NC(C)=O)cc2)C1=O` (stereo not given), the cell number change was 12.2%. Besides, the AC50 under setting [2] was 20600 nM [falling, single point].

As for `Cc1ccc(C)c(C(=O)NC(C)CCc2ccccc2)c1` (stereo not given), the cell number change turned out to be 14.3%. For the same compound, the AC50 under setting [1] is 25.9 nM [falling, full curve, poor fit]. Moreover, the half-maximal activity concentration (AC50) under setting [2] was 5.17 nM [falling, full curve, poor fit]. Turning to `Cc1ccccc1Nc1cc(=O)oc2ccccc12`, the AC50 under setting [2] is 6510 nM [falling, single point]. As for `COc1ccc(C(=O)N/N=C/C(C)c2ccccc2)cc1OC` (stereo not given), the cell number change is -31.4%. Also, under setting [1], the AC50 was 20600 nM [falling, single point]. In addition, the AC50 under setting [2] was 23100 nM [falling, single point]. As to `Cc1cccc(C)c1NC(=O)Cn1nnnc1N`, the cell number change was -21.9%. Besides, under setting [2], the AC50 is 6510 nM [falling, full curve].

For the compound `N#Cc1cc2c(nc1Cl)CCCC2`, the cell number change is -33.3%. Further, the AC50 under setting [1] is 6510 nM [rising, partial curve]. Consider `Cc1nc2ccccc2nc(C)c1=NOCc1cccc(F)c1`, for which the cell number change is -39.2%. In addition, under setting [1], the AC50 was 2060 nM [falling, partial curve]. For the same compound, the half-maximal activity concentration (AC50) under setting [2] is 13000 nM [falling, single point].

Consider `CCSc1cc(C2C(C(=O)OC)=C(C)NC3=C2C(=O)CCC3)c(C)o1` (stereo not given), for which the cell number change was 61.2%. Further, under setting [1], the AC50 was 5800 nM [rising, partial curve]. Besides, the AC50 under setting [2] is 146 nM [rising, single point]. For `COc1ccc(C(=O)N/N=C/c2ccc(N3CCOCC3)o2)cc1OC`, the cell number change is 6.54%. Besides, the AC50 under setting [2] is 103 nM [falling, full curve, poor fit]. Consider `CCOC(=O)CCCNC(=O)COC(=O)CCC(=O)c1ccc(F)cc1`, for which the cell number change worked out at 4.66%.

On to `COc1ccc(N(C)C(=S)Nc2ccc3nc(C)c(C)nc3c2)cc1`, for which the cell number change came to 12.7%. Further, under setting [2], the AC50 is 92 nM [rising, full curve, poor fit]. For `CSC(=S)N/N=C/c1c[nH]c2ccccc12`, the cell number change was -6.49%. Also, under setting [2], the AC50 was 23100 nM [falling, single point]. As for `COc1cc(CN2CCCCCC2)cc(OC)c1O`, the cell number change came out at 18.2%. Further, the AC50 under setting [2] was 29100 nM [rising, single point]. With `CCCn1c(N)c(C(=O)CN(C)CC(=O)Nc2ccccc2C(F)(F)F)c(=O)[nH]c1=O`, the AC50 under setting [2] was 6510 nM [falling, single point].

Take `c1ccc2c(c1)oc1c(N3CCN(Cc4ccc5c(c4)OCO5)CC3)ncnc12`: the cell number change came out at 224%. Also, the AC50 under setting [1] is 5800 nM [rising, partial curve]. For the same compound, the AC50 under setting [2] is 1160 nM [rising, partial curve]. As to `COc1ccc(C)cc1-n1nnnc1SCC(=O)Nc1cccnc1Cl`, the cell number change was determined as 50%. Besides, the AC50 under setting [1] is 20600 nM [rising, single point]. In the case of `COc1cc2cc(C(=O)O)[nH]c2c(OC)c1OC`, the cell number change stood at 5.9%. The AC50 under setting [2] is 184 nM [rising, full curve]. With `O=C(NCCCN1CCCC1=O)c1ccc2c(c1)NC(=O)C(N1CCOCC1)S2` (stereo not given), the cell number change was -3.53%. In addition, the AC50 under setting [1] is 103 nM [falling, full curve, poor fit]. With `O=C(O)c1ccc(Oc2c(C(F)(F)F)oc3cc(O)ccc3c2=O)cc1`, the cell number change was -54.8%. Besides, the AC50 under setting [1] is 130 nM [falling, full curve, poor fit]. Moreover, the AC50 under setting [2] was 130 nM [falling, full curve, poor fit]. As to `COc1ccc(C2=NN(C(=O)c3cccnc3)C(c3ccccc3)C2)cc1` (stereo not given), the cell number change was -0.725%. Moreover, the AC50 under setting [2] is 116 nM [rising, partial curve, poor fit]. As for `CC(C)[C@@H](C(=O)OCC(=O)Nc1ccc2c(c1)OCO2)N1C(=O)c2ccccc2C1=O`, the cell number change turned out to be 52.9%. The AC50 under setting [1] was 58 nM [rising, full curve]. In addition, under setting [2], the AC50 was 65.1 nM [rising, full curve, poor fit]. Regarding `Cc1ccc(S(=O)(=O)n2c3ccc(Cl)cc3c3nc(C)sc32)cc1`, the cell number change came to 36.7%. Moreover, the AC50 under setting [1] was 8200 nM [rising, partial curve]. Further, the AC50 under setting [2] is 32600 nM [falling, single point]. In the case of `CC1(C2CC2)NC(=O)N(CC(=O)NCc2ccc(Cl)cc2Cl)C1=O` (stereo not given), the cell number change was -1.88%. Further, under setting [2], the AC50 is 6510 nM [rising, single point]. For `COc1cc(OC)c(N(C)S(=O)(=O)c2cccc(C(=O)Nc3nnc(C4CC4)s3)c2)cc1Cl`, the AC50 under setting [2] was 1160 nM [rising, single point]. With `CN(Cc1ccccc1)S(=O)(=O)c1ccc(N2CCCC2=O)cc1`, the cell number change is -16.6%. In the case of `COc1ccc(C)cc1NC(=O)C(OC(=O)c1ccc([N+](=O)[O-])o1)c1ccccc1` (stereo not given), the cell number change is 12.5%. Moreover, the AC50 under setting [1] was 731 nM [rising, single point]. Besides, under setting [2], the AC50 was 29100 nM [rising, single point].

As to `CCOC(=O)C1=NN(C(=O)COc2ccccc2)C(O)(c2ccc(Br)cc2)C1` (stereo not given), the cell number change is -1.79%. Besides, under setting [1], the AC50 was 6510 nM [falling, single point]. In addition, the AC50 under setting [2] was 4110 nM [falling, single point]. Turning to `O=C(O)CCCNC(=O)/C(=C\c1ccc(Cl)cc1)NC(=O)c1ccccc1Br`, the cell number change was determined as 45.5%. Besides, the AC50 under setting [1] is 10300 nM [rising, partial curve]. For `COc1ccc(NC(=O)C2=C(C)Nc3nc(CCCO)nn3C2c2ccc(OC)c(OC)c2)cc1` (stereo not given), the cell number change is -5.73%. Turning to `COc1cc(C(=O)OCC(=O)c2cc(C)n(C)c2C)cc(NC(=O)c2ccco2)c1OC`, the cell number change amounted to 7.16%. Moreover, the AC50 under setting [2] is 116 nM [rising, full curve, poor fit]. Regarding `Cc1ccc2c(c1)-c1nc3ccccc3cc1C2=NC1CCCCC1`, the cell number change is -62%. For the same compound, the AC50 under setting [1] was 29100 nM [falling, single point]. For `Cc1ccc(Cn2ncc3c(NN)ncnc32)cc1`, the cell number change is -44.1%. Moreover, the AC50 under setting [1] is 2310 nM [rising, partial curve].

The record behind these values is PubChem BioAssay AID2685 (National Center for Advancing Translational Sciences (NCATS), 2010).
